# From patent US8067368
# By UniProt entry, the sequences of proteins in these tests, tags left out. Residues count along the entry.
# UniProt P35968, residues 20-1356: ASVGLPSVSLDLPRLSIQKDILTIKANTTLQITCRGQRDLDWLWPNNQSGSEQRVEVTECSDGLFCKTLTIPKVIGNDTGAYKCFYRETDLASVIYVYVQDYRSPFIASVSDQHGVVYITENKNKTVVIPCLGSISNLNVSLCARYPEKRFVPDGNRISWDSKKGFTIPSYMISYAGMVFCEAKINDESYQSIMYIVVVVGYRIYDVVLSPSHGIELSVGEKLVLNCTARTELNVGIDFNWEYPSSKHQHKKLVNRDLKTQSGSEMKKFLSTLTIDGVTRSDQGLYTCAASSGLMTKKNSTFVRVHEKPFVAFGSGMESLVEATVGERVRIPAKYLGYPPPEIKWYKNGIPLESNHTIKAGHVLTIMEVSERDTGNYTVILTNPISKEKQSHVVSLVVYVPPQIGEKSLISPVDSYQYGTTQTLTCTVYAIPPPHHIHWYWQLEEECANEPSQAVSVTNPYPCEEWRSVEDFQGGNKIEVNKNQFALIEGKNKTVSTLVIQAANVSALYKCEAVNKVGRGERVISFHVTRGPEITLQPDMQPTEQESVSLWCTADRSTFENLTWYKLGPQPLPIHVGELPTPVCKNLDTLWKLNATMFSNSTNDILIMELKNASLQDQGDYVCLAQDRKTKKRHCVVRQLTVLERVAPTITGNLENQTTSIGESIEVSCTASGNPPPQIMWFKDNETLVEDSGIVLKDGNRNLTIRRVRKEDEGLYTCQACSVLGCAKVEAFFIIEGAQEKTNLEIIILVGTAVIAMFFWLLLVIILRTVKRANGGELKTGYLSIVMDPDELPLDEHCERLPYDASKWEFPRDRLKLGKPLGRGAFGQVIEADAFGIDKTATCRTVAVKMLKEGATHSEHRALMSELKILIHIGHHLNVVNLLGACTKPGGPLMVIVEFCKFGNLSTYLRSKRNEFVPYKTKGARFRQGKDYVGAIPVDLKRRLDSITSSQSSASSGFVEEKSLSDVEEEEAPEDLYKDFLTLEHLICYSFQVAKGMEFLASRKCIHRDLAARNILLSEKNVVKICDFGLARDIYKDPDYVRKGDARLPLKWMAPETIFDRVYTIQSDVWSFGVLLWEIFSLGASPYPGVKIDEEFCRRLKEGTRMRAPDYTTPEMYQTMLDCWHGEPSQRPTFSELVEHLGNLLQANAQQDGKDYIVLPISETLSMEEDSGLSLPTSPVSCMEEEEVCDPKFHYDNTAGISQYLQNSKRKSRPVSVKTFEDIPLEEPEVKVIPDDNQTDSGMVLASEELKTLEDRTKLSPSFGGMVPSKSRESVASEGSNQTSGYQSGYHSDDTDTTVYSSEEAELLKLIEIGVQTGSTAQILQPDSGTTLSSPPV
# These are yes or no findings as the source states them, for the method shown. Some results given as binding are weak or reduced against the parent protein; the word gives no strength. Tags and fused reporters may be left off the sequences shown.
# What was measured:
# [1] = target: VEGFR-2 (Flk-1/KDR) receptor (human) (UniProt P35968); experiment: summary statement; assay not described
# [2] = target: VEGFR-2 (Flk-1/KDR) receptor (human) (UniProt P35968); experiment: HUVECs treated with 50 ng/ml for 2 min; Western blot of phospho-VEGFR-2
binding [1],binding [2],Binder
binds,binds,"recombinant His-tagged VEGF205* (ligand, not shown: small tags and cut ends) APTTEGEQKSHEVIKFMDVYQRSYCRPIETLVDIFQEYPDEIEYIFKPSCVPLMRCAGCCNDEALECVPTSESNITMQIMRIKPHQSQHIGEMSFLQHSRCECRPKKDRTKPEKKSVRGKGKGQKRKRKKSRFKSWSVYVGAAAV"
binds,,recombinant VEGF144 (ligand) APTTEGEQKSHEVIKFMDVYQRSYCRPIETLVDIFQEYPDEIEYIFKPSCVPLMRCAGCCNDEALECVPTSESNITMQIMRIKPHQSQHIGEMSFLQHSRCECRPKKDRTKPEKKSVRGKGKGQKRKRKKSRFKSWSVCDKPRR
binds,,"recombinant His-tagged VEGF120 (ligand, not shown: small tags and cut ends) APTTEGEQKSHEVIKFMDVYQRSYCRPIETLVDIFQEYPDEIEYIFKPSCVPLMRCAGCCNDEALECVPTSESNITMQIMRIKPHQSQHIGEMSFLQHSRCECRPKKDRTKPEKCDKPRR"
